Some of the results follow. Many values rest on one well or one pass, so single values are uncertain.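 Cells were imaged in 1,536-well plates, and nuclei stained with an antibody against cleaved PARP were counted against all DNA-stained nuclei to give the apoptosis fraction. Screening doses were chosen to leave most cells alive, and resting and induced cleaved-PARP levels differ strongly between cell lines.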
How the values were obtained:
Experiment in all cases: cleaved PARP positive nuclei fraction relative to DMSO control; melanoma cells; higher = more apoptosis
Conditions in all cases: library dose: low library concentration; 72 h
MZ2-MEL = system: MZ2-MEL
MeWo = system: MeWo
RPMI7951 = system: RPMI7951
RVH-421 = system: RVH-421
SkMel28 = system: SkMel28
SkMel30 = system: SkMel30
SkMel5 = system: SkMel5
UACC257 = system: UACC257
UACC62 = system: UACC62

Row | SMILES | cleaved PARP positive nuclei fraction (MZ2-MEL) [%] | cleaved PARP positive nuclei fraction (MeWo) [%] | cleaved PARP positive nuclei fraction (RPMI7951) [%] | cleaved PARP positive nuclei fraction (RVH-421) [%] | cleaved PARP positive nuclei fraction (SkMel28) [%] | cleaved PARP positive nuclei fraction (SkMel30) [%] | cleaved PARP positive nuclei fraction (SkMel5) [%] | cleaved PARP positive nuclei fraction (UACC257) [%] | cleaved PARP positive nuclei fraction (UACC62) [%]
1 | CO[C@@H]1[C@H](N(C)C(=O)c2ccccc2)C[C@H]2O[C@]1(C)n1c3ccccc3c3c4c(c5c6ccccc6n2c5c31)C(=O)NC4 [Midostaurin] + COc1cc(N2CCC(N3CCN(C)CC3)CC2)ccc1Nc1ncc(Cl)c(Nc2ccccc2S(=O)(=O)C(C)C)n1 [NVP-TAE684] (first compound 0.08 µM, partner dose 0.08 µM) | 99.2 | 83.1 | 99.6 | 66.4 | 39 | 57.2 | 95.5 | 69.7 | 34.6
2 | Cc1ccc(NC(=O)c2cccc(N(C)C)c2)cc1NC(=O)c1ccc(O)cc1 + CCCCCCCCCCCC1=C(O)C(=O)C=C(O)C1=O [Embelin] (first compound 2 µM, partner dose 1.2 µM) | 148 | 27.2 | 88.3 | 15.7 | 80.6 | 198 | 82 | 69.5 | 38.9
3 | COc1cc(Nc2ncc(F)c(Nc3ccc4c(n3)NC(=O)C(C)(C)O4)n2)cc(OC)c1OC [Tamatinib] + CCCCCCCCCCCC1=C(O)C(=O)C=C(O)C1=O [Embelin] (first compound 0.4 µM, partner dose 1.2 µM) | 139 | 45.6 | 58.8 | 97.4 | 64.7 | 105 | 29.1 | 74.3 | 43.2
4 | O=C(Nc1cccc(Cl)c1)Nc1ncc(CCNc2ncnc3ccsc23)s1 + CCN(CC)CCCCNc1ncc2cc(-c3cc(OC)cc(OC)c3)c(NC(=O)NC(C)(C)C)nc2n1 [PD173074] (first compound 0.0008 µM, partner dose 0.1 µM) | 139 | 51.2 | 98.6 | 61.2 | 157 | 58.9 | 49.6 | 127 | 143
5 | Cc1nc(Nc2ncc(C(=O)Nc3c(C)cccc3Cl)s2)cc(N2CCN(CCO)CC2)n1 [dasatanib] + COC(=O)c1sccc1S(=O)(=O)Nc1ccc(Nc2ccccc2)cc1OC [GSK0660] (first compound 0.004 µM, partner dose 1 µM) | 126 | 106 | 113 | 110 | 159 | 37.4 | 151 | 114 | 200
6 | Cn1nnc2c(C(N)=O)ncn2c1=O [temozolomide] + O=C(Nc1ccccc1)c1cc([N+](=O)[O-])ccc1Cl [GW9662] (first compound 2 µM, partner dose 2 µM) | 92.6 | 111 | 79.6 | 91.1 | 35.5 | 55.6 | 121 | 173 | 194
7 | Cn1cncc1[C@@](N)(c1ccc(Cl)cc1)c1ccc2c(c1)c(-c1cccc(Cl)c1)cc(=O)n2C [tipifarnib] + Cn1cc(/C=C2\C(=O)Nc3cccnc32)c2ccccc21 [GW441756] (first compound 0.01 µM, partner dose 0.4 µM) | 109 | 54.6 | 83.2 | 57.7 | 144 | 45.2 | 18.6 | 296 | 38.4
8 | C#Cc1cccc(Nc2ncnc3cc(OCCOC)c(OCCOC)cc23)c1 [erlotinib] + O=S(=O)(c1ccccc1)N(CC(F)(F)F)c1ccc(C(O)(C(F)(F)F)C(F)(F)F)cc1 [T0901317] (first compound 0.8 µM, partner dose 1.4 µM) | 51.6 | 27.4 | 83.7 | 177 | 191 | 30.4 | 68.6 | 193 | 81.8
9 | Nc1cccc2c1CN(C1CCC(=O)NC1=O)C2=O (configuration not stated) [lenalidomide] + Cn1cc(/C=C2\C(=O)Nc3cccnc32)c2ccccc21 [GW441756] (first compound 1 µM, partner dose 0.4 µM) | 107 | 112 | 97.3 | 61.2 | 141 | 234 | 96.3 | 156 | 41.6
10 | CO[C@@H]1[C@H](N(C)C(=O)c2ccccc2)C[C@H]2O[C@]1(C)n1c3ccccc3c3c4c(c5c6ccccc6n2c5c31)C(=O)NC4 [Midostaurin] + COc1cc2ncnc(Nc3ccc(Oc4ccccc4)cc3)c2cc1OC [SrcI1] (first compound 0.08 µM, partner dose 2 µM) | 66.8 | 176 | 186 | 41.1 | 127 | 54.3 | 61.5 | 78.9 | 122
11 | NC(=O)Nc1cc(-c2cccc(F)c2)sc1C(=O)N[C@H]1CCCNC1 + COc1ccc(COc2ccc(Cc3cnc(N)nc3N)cc2OC)cc1 [GW2580] (first compound 0.02 µM, partner dose 1 µM) | 177 | 77.3 | 86.5 | 100 | 159 | 55.3 | 75.3 | 184 | 158
12 | Cn1nnc2c(C(N)=O)ncn2c1=O [temozolomide] + COc1cc2ncnc(Nc3ccc(Oc4ccccc4)cc3)c2cc1OC [SrcI1] (first compound 2 µM, partner dose 2 µM) | 89.5 | 99.7 | 35.7 | 36 | 100 | 30 | 75.6 | 53.2 | 45.6
13 | C=CCn1c(=O)c2cnc(Nc3ccc(N4CCN(C)CC4)cc3)nc2n1-c1cccc(C(C)(C)O)n1 + Oc1nc(-c2ccc(C(F)(F)F)cc2)nc2c1CSCC2 [XAV939] (first compound 0.02 µM, partner dose 2 µM) | 133 | 37.6 | 178 | 115 | 85.1 | 46.1 | 43.4 | 143 | 96.5
14 | OCCn1cc(-c2cnc3nnn(Cc4ccc5ncccc5c4)c3n2)cn1 + O=C(O)C(=O)Nc1sc2c(c1C(=O)O)CCNC2 [TCS401] (first compound 1 µM, partner dose 1.66667 µM) | 89.5 | 50.3 | 90.1 | 1350 | 80.8 | 112 | 32.7 | 50.5 | 40.2
15 | COCC[n+]1c2c(n(Cc3cnccn3)c1C)C(=O)c1ccccc1C2=O + Cc1cc([N+](=O)[O-])ccc1NS(=O)(=O)c1cc(Cl)ccc1Cl [FH535] (first compound 0.0004 µM, partner dose 1 µM) | 133 | 80.1 | 86.5 | 106 | 80.1 | 26.3 | 73.1 | 83.8 | 94.8
16 | Cn1c(Nc2ccc(C(F)(F)F)cc2)nc2cc(Oc3ccnc(-c4ncc(C(F)(F)F)[nH]4)c3)ccc21 + O=C1NC(=O)/C(=C/c2ccc(-c3ccc(F)cc3O)o2)S1 [AS252424] (first compound 0.08 µM, partner dose 1 µM) | 180 | 94.3 | 143 | 184 | 315 | 69.7 | 168 | 1310 | 314
17 | COCC[n+]1c2c(n(Cc3cnccn3)c1C)C(=O)c1ccccc1C2=O + Oc1nc(-c2ccc(C(F)(F)F)cc2)nc2c1CSCC2 [XAV939] (first compound 0.0004 µM, partner dose 2 µM) | 194 | 122 | 228 | 37.3 | 111 | 36.5 | 79.9 | 164 | 88.8
18 | COc1cc(Nc2ncc(F)c(Nc3ccc4c(n3)NC(=O)C(C)(C)O4)n2)cc(OC)c1OC [Tamatinib] + O=C1NC(=O)/C(=C/c2ccc(-c3ccc(F)cc3O)o2)S1 [AS252424] (first compound 0.4 µM, partner dose 1 µM) | 160 | 132 | 265 | 123 | 117 | 44 | 66.3 | 324 | 247
19 | C[C@]1(c2nc3c(C(N)=O)cccc3[nH]2)CCCN1 [Veliparib] + COc1cc(N2CCC(N3CCN(C)CC3)CC2)ccc1Nc1ncc(Cl)c(Nc2ccccc2S(=O)(=O)C(C)C)n1 [NVP-TAE684] (first compound 1.4 µM, partner dose 0.08 µM) | 86.5 | 61.5 | 109 | 222 | 239 | 51.2 | 138 | 166 | 60
20 | O=C(CCCCCCC(=O)Nc1ccccc1)NO [vorinostat] + COc1cc2ncnc(Nc3ccc(Oc4ccccc4)cc3)c2cc1OC [SrcI1] (first compound 0.08 µM, partner dose 2 µM) | 124 | 111 | 37.7 | 102 | 114 | 123 | 58.3 | 146 | 342
21 | CC1(C)NC(=O)N(c2ccc([N+](=O)[O-])c(C(F)(F)F)c2)C1=O [nilutamide] + Cn1cc(/C=C2\C(=O)Nc3cccnc32)c2ccccc21 [GW441756] (first compound 1 µM, partner dose 0.4 µM) | 66.9 | 140 | 87 | 57.8 | 60.2 | 53 | 32.8 | 180 | 80.7
22 | CC1(C)NC(=O)N(c2ccc([N+](=O)[O-])c(C(F)(F)F)c2)C1=O [nilutamide] + O=c1cc(-c2cccc3c2Sc2ccccc2S3)oc(N2CCOCC2)c1 [KU55933] (first compound 1 µM, partner dose 1 µM) | 175 | 68.4 | 52.9 | 60.2 | 34.3 | 29 | 27.6 | 59.2 | 139
23 | Cc1ccc(NC(=O)c2cccc(N(C)C)c2)cc1NC(=O)c1ccc(O)cc1 + O=S(=O)(c1ccccc1)N(CC(F)(F)F)c1ccc(C(O)(C(F)(F)F)C(F)(F)F)cc1 [T0901317] (first compound 2 µM, partner dose 1.4 µM) | 191 | 108 | 23.4 | 48.5 | 125 | 15.9 | 62.2 | 60.6 | 53.9

Some of the entries so far, as tab-separated lines.
Row	SMILES	cleaved PARP positive nuclei fraction (MZ2-MEL) [%]	cleaved PARP positive nuclei fraction (MeWo) [%]	cleaved PARP positive nuclei fraction (RPMI7951) [%]	cleaved PARP positive nuclei fraction (RVH-421) [%]	cleaved PARP positive nuclei fraction (SkMel28) [%]	cleaved PARP positive nuclei fraction (SkMel30) [%]	cleaved PARP positive nuclei fraction (SkMel5) [%]	cleaved PARP positive nuclei fraction (UACC257) [%]	cleaved PARP positive nuclei fraction (UACC62) [%]
1	CO[C@@H]1[C@H](N(C)C(=O)c2ccccc2)C[C@H]2O[C@]1(C)n1c3ccccc3c3c4c(c5c6ccccc6n2c5c31)C(=O)NC4 [Midostaurin] + COc1cc(N2CCC(N3CCN(C)CC3)CC2)ccc1Nc1ncc(Cl)c(Nc2ccccc2S(=O)(=O)C(C)C)n1 [NVP-TAE684] (first compound 0.08 µM, partner dose 0.08 µM)	99.2	83.1	99.6	66.4	39	57.2	95.5	69.7	34.6
2	Cc1ccc(NC(=O)c2cccc(N(C)C)c2)cc1NC(=O)c1ccc(O)cc1 + CCCCCCCCCCCC1=C(O)C(=O)C=C(O)C1=O [Embelin] (first compound 2 µM, partner dose 1.2 µM)	148	27.2	88.3	15.7	80.6	198	82	69.5	38.9
3	COc1cc(Nc2ncc(F)c(Nc3ccc4c(n3)NC(=O)C(C)(C)O4)n2)cc(OC)c1OC [Tamatinib] + CCCCCCCCCCCC1=C(O)C(=O)C=C(O)C1=O [Embelin] (first compound 0.4 µM, partner dose 1.2 µM)	139	45.6	58.8	97.4	64.7	105	29.1	74.3	43.2
4	O=C(Nc1cccc(Cl)c1)Nc1ncc(CCNc2ncnc3ccsc23)s1 + CCN(CC)CCCCNc1ncc2cc(-c3cc(OC)cc(OC)c3)c(NC(=O)NC(C)(C)C)nc2n1 [PD173074] (first compound 0.0008 µM, partner dose 0.1 µM)	139	51.2	98.6	61.2	157	58.9	49.6	127	143
5	Cc1nc(Nc2ncc(C(=O)Nc3c(C)cccc3Cl)s2)cc(N2CCN(CCO)CC2)n1 [dasatanib] + COC(=O)c1sccc1S(=O)(=O)Nc1ccc(Nc2ccccc2)cc1OC [GSK0660] (first compound 0.004 µM, partner dose 1 µM)	126	106	113	110	159	37.4	151	114	200
